# Assay results reported in the supplement of paper PMC11732987, “Enantioselective OTUD7B fragment discovery through chemoproteomics screening and high-throughput optimisation” (Communications Chemistry, 2025).
# Amino acid sequences for entries named in this document (tags omitted). A change or cut given only in a name is not applied to a line headed by its entry. Residues count along the entry.
# UniProt P16591: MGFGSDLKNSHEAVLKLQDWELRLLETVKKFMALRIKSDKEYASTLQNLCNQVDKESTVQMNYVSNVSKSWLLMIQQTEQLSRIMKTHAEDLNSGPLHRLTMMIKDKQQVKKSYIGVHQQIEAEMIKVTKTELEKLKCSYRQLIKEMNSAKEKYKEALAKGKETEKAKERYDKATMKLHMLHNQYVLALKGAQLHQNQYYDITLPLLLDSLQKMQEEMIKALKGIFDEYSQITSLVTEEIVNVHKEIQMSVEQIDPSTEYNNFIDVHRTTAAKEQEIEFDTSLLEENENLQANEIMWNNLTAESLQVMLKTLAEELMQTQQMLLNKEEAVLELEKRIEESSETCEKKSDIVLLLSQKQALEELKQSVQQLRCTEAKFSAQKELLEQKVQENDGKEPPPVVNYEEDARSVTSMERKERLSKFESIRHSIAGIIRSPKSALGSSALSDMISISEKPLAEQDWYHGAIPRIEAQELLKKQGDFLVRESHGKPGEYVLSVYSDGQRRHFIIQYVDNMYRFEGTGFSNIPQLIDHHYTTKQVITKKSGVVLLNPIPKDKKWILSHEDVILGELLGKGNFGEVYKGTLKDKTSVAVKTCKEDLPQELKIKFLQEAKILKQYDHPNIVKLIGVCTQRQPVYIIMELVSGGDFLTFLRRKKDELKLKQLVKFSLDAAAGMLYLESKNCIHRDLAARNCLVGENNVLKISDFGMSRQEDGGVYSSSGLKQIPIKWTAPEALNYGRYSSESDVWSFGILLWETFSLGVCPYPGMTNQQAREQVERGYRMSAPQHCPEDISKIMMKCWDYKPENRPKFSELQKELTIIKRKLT
# UniProt Q96AC1, 498-525: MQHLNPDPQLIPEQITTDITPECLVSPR
# UniProt Q13480: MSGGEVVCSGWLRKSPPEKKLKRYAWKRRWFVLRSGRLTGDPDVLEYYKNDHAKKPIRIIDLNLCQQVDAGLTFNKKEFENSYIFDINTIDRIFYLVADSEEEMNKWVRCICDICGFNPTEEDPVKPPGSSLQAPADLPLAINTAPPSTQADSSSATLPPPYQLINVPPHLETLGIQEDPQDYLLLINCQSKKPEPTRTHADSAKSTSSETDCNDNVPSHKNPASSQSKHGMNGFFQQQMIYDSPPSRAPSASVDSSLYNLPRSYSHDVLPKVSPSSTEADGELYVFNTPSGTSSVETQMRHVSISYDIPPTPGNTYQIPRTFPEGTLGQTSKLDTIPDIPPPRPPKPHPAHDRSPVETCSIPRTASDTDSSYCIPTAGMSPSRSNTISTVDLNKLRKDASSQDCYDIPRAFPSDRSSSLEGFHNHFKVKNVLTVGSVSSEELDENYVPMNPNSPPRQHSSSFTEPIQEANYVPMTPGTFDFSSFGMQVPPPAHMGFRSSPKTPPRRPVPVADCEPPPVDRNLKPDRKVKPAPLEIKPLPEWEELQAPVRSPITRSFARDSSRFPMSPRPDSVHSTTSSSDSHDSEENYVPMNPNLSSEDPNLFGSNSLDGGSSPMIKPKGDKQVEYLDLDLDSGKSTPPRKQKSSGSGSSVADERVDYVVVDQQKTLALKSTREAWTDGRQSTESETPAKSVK
# UniProt P51114, whole entry, looked up: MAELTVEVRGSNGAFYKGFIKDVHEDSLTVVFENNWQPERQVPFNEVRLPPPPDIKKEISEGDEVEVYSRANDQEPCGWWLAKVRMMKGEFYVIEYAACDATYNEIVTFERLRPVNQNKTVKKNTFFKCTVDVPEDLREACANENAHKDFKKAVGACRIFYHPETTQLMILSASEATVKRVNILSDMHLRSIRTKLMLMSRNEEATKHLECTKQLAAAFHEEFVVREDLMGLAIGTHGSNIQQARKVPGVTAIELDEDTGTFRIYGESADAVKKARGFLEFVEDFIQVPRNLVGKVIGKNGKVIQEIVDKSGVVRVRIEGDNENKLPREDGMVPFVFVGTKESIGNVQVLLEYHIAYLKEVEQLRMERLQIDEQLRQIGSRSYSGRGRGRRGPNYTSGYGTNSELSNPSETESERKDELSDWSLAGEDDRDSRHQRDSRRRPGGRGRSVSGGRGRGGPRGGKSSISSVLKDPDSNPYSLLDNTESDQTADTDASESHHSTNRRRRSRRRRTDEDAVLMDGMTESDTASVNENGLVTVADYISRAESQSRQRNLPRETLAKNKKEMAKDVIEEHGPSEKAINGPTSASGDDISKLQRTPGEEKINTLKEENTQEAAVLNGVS
# UniProt Q14697, 494-518: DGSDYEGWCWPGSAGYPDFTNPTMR
# UniProt P0C2W1: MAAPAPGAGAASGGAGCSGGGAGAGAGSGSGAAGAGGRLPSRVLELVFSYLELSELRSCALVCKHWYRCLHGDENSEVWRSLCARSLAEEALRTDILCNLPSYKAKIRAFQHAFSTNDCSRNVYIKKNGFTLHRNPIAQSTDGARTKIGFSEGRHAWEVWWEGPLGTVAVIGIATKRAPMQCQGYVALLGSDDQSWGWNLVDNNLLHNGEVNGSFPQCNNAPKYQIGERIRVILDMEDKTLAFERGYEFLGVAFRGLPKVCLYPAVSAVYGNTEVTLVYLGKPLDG
# UniProt Q96AY3: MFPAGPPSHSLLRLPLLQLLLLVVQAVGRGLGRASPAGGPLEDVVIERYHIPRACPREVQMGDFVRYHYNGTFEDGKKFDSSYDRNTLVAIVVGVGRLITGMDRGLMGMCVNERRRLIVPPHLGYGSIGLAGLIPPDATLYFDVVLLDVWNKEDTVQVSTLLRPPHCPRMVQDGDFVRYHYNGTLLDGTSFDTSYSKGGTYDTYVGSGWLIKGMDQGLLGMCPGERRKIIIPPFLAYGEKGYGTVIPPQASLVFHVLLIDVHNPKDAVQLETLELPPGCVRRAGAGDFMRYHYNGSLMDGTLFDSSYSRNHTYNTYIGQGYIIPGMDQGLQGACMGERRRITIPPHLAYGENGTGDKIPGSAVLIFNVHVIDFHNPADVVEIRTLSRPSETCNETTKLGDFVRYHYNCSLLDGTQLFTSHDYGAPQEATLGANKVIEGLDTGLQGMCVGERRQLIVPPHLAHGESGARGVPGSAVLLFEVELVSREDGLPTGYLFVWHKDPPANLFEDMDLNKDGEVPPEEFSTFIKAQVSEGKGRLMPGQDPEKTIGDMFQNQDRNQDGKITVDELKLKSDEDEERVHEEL
# UniProt Q02790: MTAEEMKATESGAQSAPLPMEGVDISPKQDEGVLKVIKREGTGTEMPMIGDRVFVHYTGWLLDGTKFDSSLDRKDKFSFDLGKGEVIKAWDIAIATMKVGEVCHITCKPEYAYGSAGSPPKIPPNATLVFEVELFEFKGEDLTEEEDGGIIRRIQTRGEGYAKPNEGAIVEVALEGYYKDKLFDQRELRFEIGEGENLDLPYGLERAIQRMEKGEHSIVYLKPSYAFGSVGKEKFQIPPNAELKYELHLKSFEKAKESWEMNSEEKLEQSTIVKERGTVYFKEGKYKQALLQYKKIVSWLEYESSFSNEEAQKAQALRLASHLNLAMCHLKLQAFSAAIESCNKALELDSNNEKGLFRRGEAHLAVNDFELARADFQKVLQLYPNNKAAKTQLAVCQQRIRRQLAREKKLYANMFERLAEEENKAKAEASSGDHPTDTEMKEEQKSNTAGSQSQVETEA
# UniProt Q9P0K8: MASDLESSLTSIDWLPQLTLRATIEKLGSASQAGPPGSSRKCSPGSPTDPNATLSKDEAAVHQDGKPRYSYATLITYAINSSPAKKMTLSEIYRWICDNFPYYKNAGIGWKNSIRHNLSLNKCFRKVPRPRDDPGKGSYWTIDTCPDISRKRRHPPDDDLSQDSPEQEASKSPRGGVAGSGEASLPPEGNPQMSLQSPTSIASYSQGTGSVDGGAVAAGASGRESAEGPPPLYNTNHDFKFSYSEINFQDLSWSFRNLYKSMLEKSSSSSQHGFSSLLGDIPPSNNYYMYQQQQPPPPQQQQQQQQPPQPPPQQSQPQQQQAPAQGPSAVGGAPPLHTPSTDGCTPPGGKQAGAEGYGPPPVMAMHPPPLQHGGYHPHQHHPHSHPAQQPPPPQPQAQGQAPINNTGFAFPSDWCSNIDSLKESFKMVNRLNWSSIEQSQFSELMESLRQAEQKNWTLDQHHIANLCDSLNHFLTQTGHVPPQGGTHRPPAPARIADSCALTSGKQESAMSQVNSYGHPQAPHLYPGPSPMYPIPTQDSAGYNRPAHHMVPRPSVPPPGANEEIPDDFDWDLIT
# UniProt Q8N3Y1: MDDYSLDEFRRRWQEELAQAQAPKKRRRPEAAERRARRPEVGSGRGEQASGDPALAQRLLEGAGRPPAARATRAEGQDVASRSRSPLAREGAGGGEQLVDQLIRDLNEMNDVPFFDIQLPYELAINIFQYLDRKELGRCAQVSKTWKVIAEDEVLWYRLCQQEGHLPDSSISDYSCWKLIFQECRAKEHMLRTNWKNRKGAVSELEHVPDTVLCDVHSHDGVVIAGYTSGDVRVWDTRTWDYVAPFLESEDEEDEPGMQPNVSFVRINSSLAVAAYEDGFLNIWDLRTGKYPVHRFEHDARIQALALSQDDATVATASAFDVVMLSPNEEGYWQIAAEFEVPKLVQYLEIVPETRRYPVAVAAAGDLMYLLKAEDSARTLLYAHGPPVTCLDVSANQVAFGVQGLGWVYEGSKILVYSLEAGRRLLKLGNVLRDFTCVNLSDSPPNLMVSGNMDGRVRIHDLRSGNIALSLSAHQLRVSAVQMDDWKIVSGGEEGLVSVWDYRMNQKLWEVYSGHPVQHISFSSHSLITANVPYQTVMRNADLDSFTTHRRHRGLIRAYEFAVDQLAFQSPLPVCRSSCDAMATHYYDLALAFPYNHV
# UniProt Q9UQC2: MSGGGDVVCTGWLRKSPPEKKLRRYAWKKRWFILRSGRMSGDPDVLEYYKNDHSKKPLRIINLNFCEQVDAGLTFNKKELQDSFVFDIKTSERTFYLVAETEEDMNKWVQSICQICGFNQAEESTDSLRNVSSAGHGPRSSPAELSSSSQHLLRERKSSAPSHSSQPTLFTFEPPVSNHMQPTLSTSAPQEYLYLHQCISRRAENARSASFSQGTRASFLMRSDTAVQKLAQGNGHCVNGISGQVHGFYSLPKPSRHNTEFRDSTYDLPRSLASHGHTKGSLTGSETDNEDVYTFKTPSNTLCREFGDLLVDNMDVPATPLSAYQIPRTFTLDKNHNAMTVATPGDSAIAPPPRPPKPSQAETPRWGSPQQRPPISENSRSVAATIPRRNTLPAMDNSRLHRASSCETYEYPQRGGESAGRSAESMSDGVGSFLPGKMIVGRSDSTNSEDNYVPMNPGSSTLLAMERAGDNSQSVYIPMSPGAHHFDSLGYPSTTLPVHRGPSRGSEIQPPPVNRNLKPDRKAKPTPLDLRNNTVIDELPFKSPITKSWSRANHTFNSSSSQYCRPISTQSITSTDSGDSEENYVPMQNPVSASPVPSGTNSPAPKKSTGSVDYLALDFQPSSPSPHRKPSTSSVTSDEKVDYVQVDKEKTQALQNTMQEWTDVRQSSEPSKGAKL
# UniProt Q8N3X1, 655-674: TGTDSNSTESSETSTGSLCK
# UniProt Q14192: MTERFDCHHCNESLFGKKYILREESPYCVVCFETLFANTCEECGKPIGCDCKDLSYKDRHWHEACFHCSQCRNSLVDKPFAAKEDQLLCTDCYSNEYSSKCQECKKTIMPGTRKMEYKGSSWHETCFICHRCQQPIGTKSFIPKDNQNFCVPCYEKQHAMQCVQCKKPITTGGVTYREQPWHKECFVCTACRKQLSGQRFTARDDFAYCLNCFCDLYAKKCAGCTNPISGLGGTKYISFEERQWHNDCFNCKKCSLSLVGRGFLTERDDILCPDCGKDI
# UniProt Q14318: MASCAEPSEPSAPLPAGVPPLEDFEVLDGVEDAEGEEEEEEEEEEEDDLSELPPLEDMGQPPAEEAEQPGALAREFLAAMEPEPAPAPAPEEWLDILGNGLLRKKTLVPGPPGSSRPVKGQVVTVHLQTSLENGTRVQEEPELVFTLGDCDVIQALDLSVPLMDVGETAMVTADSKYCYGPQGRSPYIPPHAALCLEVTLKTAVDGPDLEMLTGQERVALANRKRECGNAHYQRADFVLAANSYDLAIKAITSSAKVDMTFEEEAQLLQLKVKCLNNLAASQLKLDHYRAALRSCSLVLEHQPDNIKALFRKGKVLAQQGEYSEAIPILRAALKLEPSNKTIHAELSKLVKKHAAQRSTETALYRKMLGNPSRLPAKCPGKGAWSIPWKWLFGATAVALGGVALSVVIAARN
# UniProt Q06546: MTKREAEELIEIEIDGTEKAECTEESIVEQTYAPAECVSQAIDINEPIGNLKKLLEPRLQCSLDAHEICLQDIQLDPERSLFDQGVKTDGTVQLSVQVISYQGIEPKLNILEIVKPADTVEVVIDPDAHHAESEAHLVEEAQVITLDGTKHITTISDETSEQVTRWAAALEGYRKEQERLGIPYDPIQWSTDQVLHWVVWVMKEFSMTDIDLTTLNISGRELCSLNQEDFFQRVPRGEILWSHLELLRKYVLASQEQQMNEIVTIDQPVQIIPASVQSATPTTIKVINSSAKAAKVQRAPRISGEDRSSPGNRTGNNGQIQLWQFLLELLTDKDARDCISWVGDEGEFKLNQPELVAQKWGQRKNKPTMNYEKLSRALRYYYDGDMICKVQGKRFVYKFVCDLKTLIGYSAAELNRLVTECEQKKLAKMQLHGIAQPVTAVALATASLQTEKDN
# This is one part of the list. The data scatter; read single values as rough.
# Compound: ClCC(=O)N[C@H]1CCCc2ccccc12
# Assay: log2 mean competition ratio of IA-DTB cysteine labelling (DMSO/compound) (log2 ratio); higher = stronger cysteine engagement by compound
# Conditions: 50 µM; treatment time: 4 h; cell line lysate: HEK293T
# Method: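 IA-DTB competitive cysteine chemoproteomics in HEK293T RIPA lysate. Lysates were treated with compound 29 or 30 at 50 or 200 µM for 4 h, then IA-DTB (500 µM, 1 h), trypsin-digested, NeutrAvidin-enriched and analysed by diaPASEF. Competition ratio = intensity DMSO / intensity compound (n=4 treated, n=64 DMSO); binding: mean log2 CR ≥ 1 and p ≤ 0.05 plus QC filters. Target is the cysteine site.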
row,Target,log2 mean competition ratio
1,FER C796 (UniProt P16591),-0.154
2,FERMT2 C520 (UniProt Q96AC1),-0.154
3,FZD3 C600,0.484
4,GAB1 C405 (UniProt Q13480),-0.0776
5,FXR1 C141 (UniProt P51114),-0.279
6,GANAB C502 (UniProt Q14697),-0.084
7,FUBP3 C109 (UniProt Q96I24),-0.132
8,FBXO45 C98 (UniProt P0C2W1),-0.418
9,FKBP10 C392 (UniProt Q96AY3),-0.105
10,FKBP4 C396 (UniProt Q02790),0.215
11,FOXJ2 C145 (UniProt Q9P0K8),0.151
12,FBXW8 C184 (UniProt Q8N3Y1),0.537
13,FCHSD2 C354 (UniProt O94868),-0.685
14,GAB2 C406 (UniProt Q9UQC2),-0.263
15,FNBP4 C673 (UniProt Q8N3X1),-0.345
16,FHL2 C254 (UniProt Q14192),0.214
17,FER C593 (UniProt P16591),-0.481
18,FASN C1828,-0.0397
19,FKBP8 C295 (UniProt Q14318),-0.595
20,GABPA C421 (UniProt Q06546),-0.0486

# Same assay, conditions: 200 µM; treatment time: 4 h; cell line lysate: HEK293T
row,Target,log2 mean competition ratio
1,FER C796 (UniProt P16591),-0.12
2,FERMT2 C520 (UniProt Q96AC1),-0.181
3,FZD3 C600,0.238
4,GAB1 C405 (UniProt Q13480),-0.0754
5,FXR1 C141 (UniProt P51114),-0.226
6,GANAB C502 (UniProt Q14697),0.213
7,FUBP3 C109 (UniProt Q96I24),0.194
8,FBXO45 C98 (UniProt P0C2W1),-0.225
9,FKBP10 C392 (UniProt Q96AY3),-0.136
10,FKBP4 C396 (UniProt Q02790),-0.0356
11,FOXJ2 C145 (UniProt Q9P0K8),-0.0187
12,FBXW8 C184 (UniProt Q8N3Y1),-0.0495
13,FCHSD2 C354 (UniProt O94868),0.0502
14,GAB2 C406 (UniProt Q9UQC2),0.269
15,FNBP4 C673 (UniProt Q8N3X1),0.186
16,FHL2 C254 (UniProt Q14192),0.256
17,FER C593 (UniProt P16591),0.105
18,FASN C1828,0.189
19,FKBP8 C295 (UniProt Q14318),-0.0948
20,GABPA C421 (UniProt Q06546),0.157
